Values from PubChem BioAssay AID652243 (Drosophila RNAi Screening Center, 2013)
Test: 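Fly regulators of androgen-dependent reporter output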 (primary screen). System: Drosophila S2R+ cells. Reagents: long dsRNA against Drosophila genes. Timing: 72 h (48 h, then 24 h hormone). Conditions: synthetic androgen R1881 at 10 nM for 24 h. Measured: 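Per-well raw luminescence of the androgen-driven firefly reporter and of the Renilla control, two replicates each, without normalisation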. Direction: firefly reporter light: higher = more light from androgen-responsive reporter; Renilla control light: higher = more constitutive control signal (cell number, transfection). Active means: 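Across duplicate plates, a knock-down whose log firefly/Renilla ratio shifted a set fold down or up from the GFP/LacZ control mean was a hit; the downward cut appears as both 1.5 and 3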. Calls: active = hit: reporter lowered or raised; inactive = no hit.
In all, the deposit lists about 24,000 reagents; shown is a random part of those that have a named target and a result. In the full data, 246 (1%) are marked active. 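Plates not normalised; calls are printed but the firefly/Renilla ratio behind them is not deposited; fold cut for lowering reported inconsistently.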 The raw values are shown without normalisation. The numbers tell different reagents against one gene apart. A plus sign joins genes that one reagent is predicted to hit. No sequences are given here. The record does not give: the amount of reagent.

| Target gene | reagent | firefly reporter light, replicate 1 | firefly reporter light, replicate 2 | Renilla control light, replicate 1 | Renilla control light, replicate 2 | Outcome |
| --- | --- | --- | --- | --- | --- | --- |
| ppk15 | 1 | 1.28e5 | 2.46e5 | 1.33e6 | 2.06e6 | inactive |
| ppk15 | 2 | 9.95e5 | 4.23e5 | 2.30e6 | 1.01e6 | inactive |
| CG4194 | 1 | 61348 | 1.01e5 | 4.92e5 | 4.15e5 | inactive |
| PAN3 | 1 | 9.64e5 | 1.03e6 | 2.04e6 | 1.49e6 | inactive |
| PAN3 | 2 | 6.74e5 | 6.81e5 | 9.81e5 | 1.07e6 | inactive |
| OSCP1 | 1 | 1.89e5 | 1.77e5 | 9.71e5 | 6.49e5 | inactive |
| Sas-4 | 1 | 66330 | 1.84e5 | 1.84e6 | 2.51e6 | inactive |
| CG31775 + CG42586 | 1 | 8.03e5 | 9.86e5 | 1.23e6 | 1.53e6 | inactive |
| CG4892 | 1 | 1.31e5 | 1.25e5 | 1.10e6 | 1.09e6 | inactive |

Continued (2 carried over from the part before).
| Target gene | reagent | firefly reporter light, replicate 1 | firefly reporter light, replicate 2 | Renilla control light, replicate 1 | Renilla control light, replicate 2 | Outcome |
| --- | --- | --- | --- | --- | --- | --- |
| CG31775 + CG42586 | 1 | 8.03e5 | 9.86e5 | 1.23e6 | 1.53e6 | inactive |
| CG4892 | 1 | 1.31e5 | 1.25e5 | 1.10e6 | 1.09e6 | inactive |
| Torsin | 1 | 3.59e5 | 2.87e5 | 2.17e6 | 2.73e6 | inactive |
| UGP | 1 | 9.69e5 | 1.03e6 | 1.49e6 | 1.45e6 | inactive |
| Dsk | 1 | 75838 | 59225 | 2.16e6 | 1.70e6 | inactive |
| CG15701 | 1 | 26982 | 49139 | 6.27e5 | 6.27e5 | inactive |
| CG13995 | 1 | 2.75e5 | 2.55e5 | 2.02e6 | 2.24e6 | inactive |
| CG13995 | 2 | 3.85e5 | 3.39e5 | 3.31e6 | 2.27e6 | inactive |
| CG13995 | 3 | 8.02e5 | 1.20e6 | 1.60e6 | 1.89e6 | inactive |
| CG13995 | 4 | 7.09e5 | 8.10e5 | 1.70e6 | 1.53e6 | inactive |
| Ptr | 1 | 2.37e5 | 2.33e5 | 1.58e6 | 1.05e6 | inactive |
| Ptr | 2 | 6.30e5 | 5.68e5 | 2.14e6 | 1.67e6 | inactive |
| CG3625 | 1 | 6.55e5 | 5.70e5 | 2.79e6 | 1.85e6 | inactive |
| CG15831 (retired record) | 1 | 7.64e5 | 7.69e5 | 1.41e6 | 1.80e6 | inactive |
| CG14995 | 1 | 1.14e6 | 1.27e6 | 1.58e6 | 2.01e6 | inactive |
| TBC1D16 | 1 | 1.63e5 | 1.65e5 | 1.25e6 | 1.13e6 | inactive |
| CG9568 | 1 | 2.68e5 | 1.92e5 | 2.81e6 | 2.10e6 | inactive |
